One data set concerns obese Zucker fa/fa rats. The experiment in a line: Fatty acid composition in liver and plasma of obese Zucker fa/fa rats (Example 19). It counts as in vivo, rat. As to conditions: 300 mg/day/kg gavage once daily for 10 days. As to the method: Male obese Zucker fa/fa rats, weighing 100 g at the start of the experiment, were housed in pairs in metal wire cages in a room maintained at 12 h light-dark cycles and a constant temperature of 20±3° C. The animals were acclimatised for at least one week under these conditions before the start of the experiment.
TTA and palmitic acid (control), was suspended in 0.5% (w/v) carboxymethyl cellulose (CMC) and administered at a dose of 300 mg/day/kg body weight, by gastric intubation (gavage) once daily for 10 days. The rats were fasted for 2 hours before termination of the experiment. Blood and organs were collected. Total lipids were extracted from liver and plasma. The lipids were evaporated, saponified and esterified prior to separation using a Carlo Erba 2900 gas-chromatograph.

The subject of the next data set is rats. The experiment in a line: Administration of TTA to rats for 12 weeks, hepatic and plasma fatty acid content. It counts as in vivo, rat.

With Tetradecylthioacetic acid [TTA], in the data set on obese Zucker fa/fa rats, the “Oleic acid, fatty acid composition in liver (% of total)” value is given as 14.9 ± 1.0 % of total and the “Oleic acid, fatty acid composition in plasma (% of total)” value is 22.1 ± 0.5 % of total. The “Hepatic and plasma content of monounsaturated fatty acids (mainly oleic acid)” value in the data set on rats was “nearly doubled”. Moreover, in the data set on rats (hepatic and plasma content), the “Polyunsaturated fatty acids (mainly linoleic acid and DHA)” value was “decreased”.

For the origin of these results see patent US6365628B1 (Thia Medica AS, priority 1998, dated 2002).
